Data: publication PMC5912465
Results are given in words; binding and its absence hold for the method and conditions named. Some entries that bind do so weakly or less than the wild type.

Amino acid sequences for entries named in this document (tags omitted). Residues count along the entry.
UniProt P80075, residues 24-99: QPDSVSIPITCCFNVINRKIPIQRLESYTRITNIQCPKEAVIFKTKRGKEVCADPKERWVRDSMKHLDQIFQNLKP

Target: C-terminally tagged P672 (P672_RHIPU), glycosylated (Rhipicephalus pulchellus) (UniProt L7MC74)
Experiment: BLI; both purified

In the case of “CCL8 (human chemokine panel) (from UniProt P80075 24-99) (ligand)”, the binding is reported as “binds”.
